In PubChem BioAssay AID2685 (National Center for Advancing Translational Sciences (NCATS), 2010):
Some of the results follow. Further columns of the screen follow, without active or inactive calls. Most of these compounds were active or inconclusive in the main read-out, so they are no random draw. The note in brackets gives the kind of curve behind each potency; many fits are weak.

Test: qHTS Assay for Lipid Storage Modulators in Drosophila S3 Cells;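 for cell number change: cells counted by Cell Tracker Red CMTPX staining in the red channel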
Settings: BODIPY lipid droplet fluorescence, 18-24 h; for cell number change: measured here: cell count max response, cells fed with added oleic acid
In short: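 Drosophila S3 cells got compounds at several concentrations plus oleic acid (400 uM solution). Laser-scanning cytometry with 488 nm excitation read lipid droplets at 500-530 nm and cells at 575-640 nm. Percent activity was relative to 20 uM Triacsin C.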

[1] = measured here: cell number channel AC50, cells fed with added oleic acid
[2] = measured here: lipid fluorescence (Fed channel) AC50, cells fed with added oleic acid

SMILES: Cc1ccc(CCNc2ccccc2)c[n+]1[O-]
- AC50 [1]: 0.58 µM [rising, single point]
- AC50 [2]: 0.58 µM [rising, single point]

SMILES: COC(=O)NNC(=O)COc1ccccc1C
- cell number change: -12.4%
- AC50 [2]: 3.66 µM [falling, full curve]

SMILES: Cn1c(C(=O)O)c(CC(=O)Nc2ccc(F)cc2F)c2ccccc21
- cell number change: -13.8%
- AC50 [2]: 0.411 µM [rising, full curve]

SMILES: CCC(CNC(=O)c1c(C)nn(-c2ccccc2)c1Cl)c1ccccc1 (stereo not drawn)
- cell number change: 17.9%
- AC50 [2]: 16.4 µM [rising, partial curve]

SMILES: O=C(O)CCn1c(=O)[nH]c2ccccc2c1=O
- cell number change: -135%
- AC50 [1]: 25.9 µM [falling, partial curve]
- AC50 [2]: 23.1 µM [falling, partial curve]

SMILES: COc1ccc2c(C)cc(SCC(=O)Nc3cccnc3Cl)nc2c1
- cell number change: 119%

SMILES: COc1ccc([C@@H]2[C@@H](C(=O)C(C)(C)C)N3N=Cc4ccccc4[C@@H]3C23C(=O)OC(C)(C)OC3=O)cc1OC
- AC50 [1]: 0.092 µM [rising, full curve, poor fit]

SMILES: Nc1cc(=O)[nH]c(SCC(=O)Nc2cc([N+](=O)[O-])ccc2Cl)n1
- cell number change: 76.1%
- AC50 [1]: 29.1 µM [rising, single point]

SMILES: CCCCn1nc(NC(=O)c2cccs2)c2cc3ccccc3nc21
- cell number change: -26.5%
- AC50 [1]: 4.61 µM [falling, full curve, poor fit]
- AC50 [2]: 6.51 µM [falling, partial curve, poor fit]

SMILES: CCn1cc(CN2CCC(n3nccc3NC(=O)c3ccc4c(c3)OCO4)CC2)c(C)n1
- cell number change: -14.7%
- AC50 [2]: 1.84 µM [rising, partial curve]

SMILES: Cc1ccc(S(=O)(=O)NC(C(=O)N2CCOCCOCCOCC2)C(C)C)cc1 (stereo not drawn)
- cell number change: 8.57%
- AC50 [2]: 29.1 µM [falling, single point]

SMILES: CN(C)c1ccc(N=Nc2ccccc2Br)cc1
- cell number change: -54.2%
- AC50 [1]: 11.6 µM [falling, partial curve, poor fit]
- AC50 [2]: 9.2 µM [falling, partial curve]

SMILES: CCOc1ccccc1NC(=O)Cn1cnc2c(nnn2-c2cccc(OC)c2)c1=O
- cell number change: -15.8%
- AC50 [2]: 23.1 µM [falling, single point]

SMILES: CC(O)CN1CCN(C(=O)CN2C(=O)NC(c3ccccc3)(c3ccccc3)C2=O)CC1 (stereo not drawn)
- cell number change: 11.6%
- AC50 [2]: 14.6 µM [rising, partial curve]

SMILES: CCOCCSC1=C(C#N)C(c2cccs2)C(C(C)=O)=C(C)N1 (stereo not drawn)
- cell number change: 13.4%
- AC50 [2]: 6.51 µM [rising, single point]

SMILES: Cn1c(SCC(=O)NC2CC2)nnc1-c1cccs1
- cell number change: 0.54%
- AC50 [2]: 29.1 µM [falling, single point]
